Results as given in the supplement of paper PMC10849652.
Some of the results follow.

Sequences of proteins named here, by UniProt entry; tags and fusion partners are left off. A change or cut given only in a name is not applied to a line headed by its entry.
UniProt P20073: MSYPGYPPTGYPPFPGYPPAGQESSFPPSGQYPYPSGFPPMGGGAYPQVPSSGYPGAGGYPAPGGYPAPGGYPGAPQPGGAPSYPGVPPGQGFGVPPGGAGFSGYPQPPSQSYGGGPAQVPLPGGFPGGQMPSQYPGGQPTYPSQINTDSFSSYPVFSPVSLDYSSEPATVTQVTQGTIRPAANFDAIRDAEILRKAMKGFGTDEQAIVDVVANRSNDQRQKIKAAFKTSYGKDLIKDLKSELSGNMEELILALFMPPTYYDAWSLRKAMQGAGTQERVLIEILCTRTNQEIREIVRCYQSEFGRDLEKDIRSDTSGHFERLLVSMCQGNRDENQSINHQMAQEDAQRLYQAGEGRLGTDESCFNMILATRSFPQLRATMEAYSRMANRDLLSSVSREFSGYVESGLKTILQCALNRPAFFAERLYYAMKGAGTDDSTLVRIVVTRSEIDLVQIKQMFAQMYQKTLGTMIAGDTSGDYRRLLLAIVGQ
UniProt Q6NS38: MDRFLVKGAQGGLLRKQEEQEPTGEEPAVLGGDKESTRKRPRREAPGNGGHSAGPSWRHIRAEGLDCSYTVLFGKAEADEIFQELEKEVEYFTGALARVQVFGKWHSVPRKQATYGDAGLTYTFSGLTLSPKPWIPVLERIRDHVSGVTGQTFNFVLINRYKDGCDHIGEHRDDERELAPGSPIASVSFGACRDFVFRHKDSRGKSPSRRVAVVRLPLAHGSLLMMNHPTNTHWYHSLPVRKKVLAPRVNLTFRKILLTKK
UniProt P17707: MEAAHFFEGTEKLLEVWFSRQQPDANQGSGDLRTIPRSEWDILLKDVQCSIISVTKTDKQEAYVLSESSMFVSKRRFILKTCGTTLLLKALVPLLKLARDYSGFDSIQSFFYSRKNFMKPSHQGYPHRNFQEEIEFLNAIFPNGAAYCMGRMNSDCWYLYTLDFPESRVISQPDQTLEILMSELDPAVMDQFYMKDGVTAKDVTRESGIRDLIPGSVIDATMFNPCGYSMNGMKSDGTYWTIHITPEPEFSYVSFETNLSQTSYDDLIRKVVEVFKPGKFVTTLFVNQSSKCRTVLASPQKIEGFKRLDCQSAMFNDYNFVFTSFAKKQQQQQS
UniProt Q9UJX6, whole entry, looked up: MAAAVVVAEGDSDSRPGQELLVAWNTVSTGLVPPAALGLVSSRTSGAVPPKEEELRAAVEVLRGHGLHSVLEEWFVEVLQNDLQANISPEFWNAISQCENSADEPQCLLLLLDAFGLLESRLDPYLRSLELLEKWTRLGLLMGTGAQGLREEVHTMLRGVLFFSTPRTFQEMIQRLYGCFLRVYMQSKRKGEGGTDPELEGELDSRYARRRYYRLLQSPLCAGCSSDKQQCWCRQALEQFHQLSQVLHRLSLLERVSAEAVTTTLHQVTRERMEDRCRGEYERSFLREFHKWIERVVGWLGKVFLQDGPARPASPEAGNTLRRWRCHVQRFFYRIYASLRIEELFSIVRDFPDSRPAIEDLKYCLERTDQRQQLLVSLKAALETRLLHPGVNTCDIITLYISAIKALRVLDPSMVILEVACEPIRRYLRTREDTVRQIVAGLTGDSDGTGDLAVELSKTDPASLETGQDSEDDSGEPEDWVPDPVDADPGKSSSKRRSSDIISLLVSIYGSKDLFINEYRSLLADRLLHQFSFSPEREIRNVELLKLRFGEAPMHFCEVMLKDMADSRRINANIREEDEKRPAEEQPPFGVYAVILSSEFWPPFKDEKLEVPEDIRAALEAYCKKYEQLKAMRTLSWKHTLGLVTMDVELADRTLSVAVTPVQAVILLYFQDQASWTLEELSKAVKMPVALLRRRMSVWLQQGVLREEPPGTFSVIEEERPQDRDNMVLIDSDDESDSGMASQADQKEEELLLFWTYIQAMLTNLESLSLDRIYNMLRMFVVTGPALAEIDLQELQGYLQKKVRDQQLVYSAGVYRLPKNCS
UniProt P53680: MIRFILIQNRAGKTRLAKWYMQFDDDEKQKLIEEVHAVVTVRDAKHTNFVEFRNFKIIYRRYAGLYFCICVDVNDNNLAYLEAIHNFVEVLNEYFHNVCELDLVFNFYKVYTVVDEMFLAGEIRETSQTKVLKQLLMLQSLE
UniProt O15084: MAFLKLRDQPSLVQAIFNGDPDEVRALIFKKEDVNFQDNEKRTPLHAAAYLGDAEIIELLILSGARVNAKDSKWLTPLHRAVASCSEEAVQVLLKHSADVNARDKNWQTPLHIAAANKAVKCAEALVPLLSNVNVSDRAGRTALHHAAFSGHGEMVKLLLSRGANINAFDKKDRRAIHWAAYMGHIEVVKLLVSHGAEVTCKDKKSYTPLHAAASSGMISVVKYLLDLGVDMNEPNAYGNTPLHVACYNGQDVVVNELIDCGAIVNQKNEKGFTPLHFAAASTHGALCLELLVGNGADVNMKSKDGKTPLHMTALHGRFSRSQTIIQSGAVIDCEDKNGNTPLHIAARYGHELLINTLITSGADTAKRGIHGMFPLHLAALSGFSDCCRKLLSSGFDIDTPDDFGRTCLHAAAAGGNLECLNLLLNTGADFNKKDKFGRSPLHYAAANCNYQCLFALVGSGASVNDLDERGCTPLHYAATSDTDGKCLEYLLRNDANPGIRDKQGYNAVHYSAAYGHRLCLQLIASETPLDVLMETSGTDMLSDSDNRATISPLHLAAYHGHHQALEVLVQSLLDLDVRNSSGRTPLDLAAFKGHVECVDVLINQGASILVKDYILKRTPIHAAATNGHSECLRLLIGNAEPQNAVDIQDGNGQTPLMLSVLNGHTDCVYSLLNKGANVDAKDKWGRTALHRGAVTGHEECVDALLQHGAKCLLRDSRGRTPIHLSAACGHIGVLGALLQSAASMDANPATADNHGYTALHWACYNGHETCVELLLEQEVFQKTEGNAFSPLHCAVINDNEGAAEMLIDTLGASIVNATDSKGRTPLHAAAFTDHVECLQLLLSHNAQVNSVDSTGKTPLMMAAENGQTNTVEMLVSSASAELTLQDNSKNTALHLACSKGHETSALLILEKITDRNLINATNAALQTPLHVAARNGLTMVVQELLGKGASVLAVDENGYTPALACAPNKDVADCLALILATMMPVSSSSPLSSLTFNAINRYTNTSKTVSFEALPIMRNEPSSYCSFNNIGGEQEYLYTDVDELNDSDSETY
UniProt Q8IZ83: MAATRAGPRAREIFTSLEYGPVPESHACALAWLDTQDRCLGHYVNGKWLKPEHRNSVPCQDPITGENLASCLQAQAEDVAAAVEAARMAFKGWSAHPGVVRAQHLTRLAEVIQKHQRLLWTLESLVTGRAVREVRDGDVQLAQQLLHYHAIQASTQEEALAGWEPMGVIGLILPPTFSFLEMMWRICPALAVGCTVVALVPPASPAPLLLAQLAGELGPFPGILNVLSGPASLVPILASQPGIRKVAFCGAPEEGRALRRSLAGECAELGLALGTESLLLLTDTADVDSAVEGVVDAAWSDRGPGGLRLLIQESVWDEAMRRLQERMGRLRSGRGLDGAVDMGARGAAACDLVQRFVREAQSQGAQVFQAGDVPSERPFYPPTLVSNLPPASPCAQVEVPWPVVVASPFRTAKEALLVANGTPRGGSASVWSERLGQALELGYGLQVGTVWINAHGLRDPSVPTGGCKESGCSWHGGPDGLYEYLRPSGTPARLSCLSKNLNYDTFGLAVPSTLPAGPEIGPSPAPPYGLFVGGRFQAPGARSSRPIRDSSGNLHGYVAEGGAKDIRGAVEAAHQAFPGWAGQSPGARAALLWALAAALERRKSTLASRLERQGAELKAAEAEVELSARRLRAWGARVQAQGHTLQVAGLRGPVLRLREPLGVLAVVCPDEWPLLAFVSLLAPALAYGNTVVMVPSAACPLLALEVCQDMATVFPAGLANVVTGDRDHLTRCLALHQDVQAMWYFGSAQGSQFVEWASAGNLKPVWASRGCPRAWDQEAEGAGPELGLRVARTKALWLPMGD
UniProt O43747: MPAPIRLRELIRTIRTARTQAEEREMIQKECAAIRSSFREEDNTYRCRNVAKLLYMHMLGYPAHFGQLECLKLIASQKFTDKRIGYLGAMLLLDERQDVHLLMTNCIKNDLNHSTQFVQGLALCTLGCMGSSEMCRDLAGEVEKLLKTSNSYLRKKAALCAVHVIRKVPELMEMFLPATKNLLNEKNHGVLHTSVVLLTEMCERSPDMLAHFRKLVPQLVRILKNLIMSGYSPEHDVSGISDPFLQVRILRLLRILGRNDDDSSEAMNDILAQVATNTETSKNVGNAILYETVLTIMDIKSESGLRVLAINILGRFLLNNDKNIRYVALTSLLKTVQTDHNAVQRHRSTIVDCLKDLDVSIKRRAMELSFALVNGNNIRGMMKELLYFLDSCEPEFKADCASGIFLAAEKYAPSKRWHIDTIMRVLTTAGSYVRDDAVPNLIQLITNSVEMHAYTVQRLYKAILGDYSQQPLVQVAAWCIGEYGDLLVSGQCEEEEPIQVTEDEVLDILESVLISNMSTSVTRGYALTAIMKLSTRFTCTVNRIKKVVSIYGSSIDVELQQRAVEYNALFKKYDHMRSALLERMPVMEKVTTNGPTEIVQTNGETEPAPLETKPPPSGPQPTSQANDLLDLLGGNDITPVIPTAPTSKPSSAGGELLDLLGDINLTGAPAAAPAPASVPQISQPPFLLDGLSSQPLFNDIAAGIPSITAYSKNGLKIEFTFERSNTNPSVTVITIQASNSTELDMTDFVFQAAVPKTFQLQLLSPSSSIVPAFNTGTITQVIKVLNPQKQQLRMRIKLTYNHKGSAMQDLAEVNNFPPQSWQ
UniProt P56377: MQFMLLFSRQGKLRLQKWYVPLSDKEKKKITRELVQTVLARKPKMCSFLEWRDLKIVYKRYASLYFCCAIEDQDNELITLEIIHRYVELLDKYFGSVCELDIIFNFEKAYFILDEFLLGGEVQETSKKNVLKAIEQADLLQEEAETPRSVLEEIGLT
UniProt P13716: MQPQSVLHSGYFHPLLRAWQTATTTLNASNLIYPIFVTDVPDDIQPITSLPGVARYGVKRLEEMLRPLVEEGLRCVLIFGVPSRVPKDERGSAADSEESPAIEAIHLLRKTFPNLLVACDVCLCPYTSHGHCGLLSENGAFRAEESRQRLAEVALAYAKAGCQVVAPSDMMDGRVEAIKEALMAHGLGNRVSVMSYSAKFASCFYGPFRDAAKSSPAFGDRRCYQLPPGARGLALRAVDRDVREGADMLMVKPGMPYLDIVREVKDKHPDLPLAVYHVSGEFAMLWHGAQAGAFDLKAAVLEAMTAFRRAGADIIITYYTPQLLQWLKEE
UniProt P31751: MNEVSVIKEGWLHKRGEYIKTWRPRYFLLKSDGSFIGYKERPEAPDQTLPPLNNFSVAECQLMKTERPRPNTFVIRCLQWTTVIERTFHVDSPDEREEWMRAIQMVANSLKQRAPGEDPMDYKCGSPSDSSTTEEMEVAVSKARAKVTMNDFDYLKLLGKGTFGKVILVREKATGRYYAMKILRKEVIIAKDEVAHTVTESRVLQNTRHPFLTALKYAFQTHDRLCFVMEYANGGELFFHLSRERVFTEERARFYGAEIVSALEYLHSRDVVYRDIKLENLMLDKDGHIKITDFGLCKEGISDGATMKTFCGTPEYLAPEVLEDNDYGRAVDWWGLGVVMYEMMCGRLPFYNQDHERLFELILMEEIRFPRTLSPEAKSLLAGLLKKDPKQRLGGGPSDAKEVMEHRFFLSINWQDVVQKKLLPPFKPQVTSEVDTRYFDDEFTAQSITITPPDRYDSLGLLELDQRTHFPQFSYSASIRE
UniProt Q8N6D5: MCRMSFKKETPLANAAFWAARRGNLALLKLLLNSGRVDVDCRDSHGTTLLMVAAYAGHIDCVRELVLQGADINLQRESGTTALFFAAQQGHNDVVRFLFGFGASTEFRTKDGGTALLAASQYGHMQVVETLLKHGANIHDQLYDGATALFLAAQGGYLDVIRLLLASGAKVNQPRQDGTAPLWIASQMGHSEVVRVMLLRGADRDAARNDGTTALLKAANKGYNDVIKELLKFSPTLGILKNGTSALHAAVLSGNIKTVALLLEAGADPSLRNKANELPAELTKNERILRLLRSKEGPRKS
UniProt O94788: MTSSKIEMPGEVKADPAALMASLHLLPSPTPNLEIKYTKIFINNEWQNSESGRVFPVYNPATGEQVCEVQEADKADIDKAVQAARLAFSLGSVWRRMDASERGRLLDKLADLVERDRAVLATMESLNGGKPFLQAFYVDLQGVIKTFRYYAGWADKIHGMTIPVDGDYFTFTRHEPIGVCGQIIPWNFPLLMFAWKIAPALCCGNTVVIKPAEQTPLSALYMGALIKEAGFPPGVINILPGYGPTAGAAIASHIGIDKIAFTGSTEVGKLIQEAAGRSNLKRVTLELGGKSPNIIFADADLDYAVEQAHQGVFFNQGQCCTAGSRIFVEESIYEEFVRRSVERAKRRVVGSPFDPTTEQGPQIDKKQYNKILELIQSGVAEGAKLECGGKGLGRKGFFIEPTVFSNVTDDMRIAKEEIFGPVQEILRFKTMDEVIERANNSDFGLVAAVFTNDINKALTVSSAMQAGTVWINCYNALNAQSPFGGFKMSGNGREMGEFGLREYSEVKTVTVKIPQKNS

compound: c1cn2cc(-c3ccc4cn[nH]c4c3)nc(Nc3ccc(N4CCOCC4)cc3)c2n1 [entospletinib]; assay: log2 fold change, soluble protein after heating vs DMSO (PISA); higher = thermal stabilisation; K562 lysate, 10 uM; active = over 0.2 and 3.5 SD of the protein, either way, in both replicates (recomputed)
In short: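 A 30 min treatment with 10 μM compound was applied to crude K562 extract at 1 mg/mL protein in PBS pH 7.4 with 1 mM MgCl2. Heating for 3 min spanned 48°C-58°C, after which aliquots were pooled, adjusted to 0.5% NP-40 at 4°C and spun at 21,000xg for 90 min. TMTpro 16plex LC-MS/MS of the supernatant, with channel sums equalised, gave values recorded as log-two fold change in thermal stability against solvent controls, from duplicates.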

log2 fold change, inactive:
ALDH4A1 (UniProt P30038) -0.013
ALG8 (UniProt Q9BVK2) -0.007
AP3M1 (UniProt Q9Y2T2) 0.01
ALS2 (UniProt Q96Q42) 0.011
ANXA7 (UniProt P20073) 0.018
ALKBH2 (UniProt Q6NS38) -0.091
ANKRD13D isoform 3 (UniProt Q6ZTN6) -0.015
AMD1 (UniProt P17707) 0.211
AKT1S1 isoform 3 (UniProt Q96B36) -0.001
ANO6 (UniProt Q4KMQ2) -0.004
ANAPC2 (UniProt Q9UJX6) 0.021
ANP32E (UniProt Q9BTT0) 0.012
ANKRD49 (UniProt Q8WVL7) 0.023
AP2S1 (UniProt P53680) 0.044
ANXA2 isoform 2 (UniProt P07355) 0.016
ANKRD28 (UniProt O15084) 0.01
ALDH16A1 (UniProt Q8IZ83) 0.025
ANKMY2 (UniProt Q8IV38) 0.003
AP1G1 isoform 2 (UniProt O43747) -0.007
ANKRD52 (UniProt Q8NB46) -0.057
ALDH2 (UniProt P05091) -0.009
ANK3 (UniProt Q12955) 0.005
AP1S2 isoform 2 (UniProt P56377) -0.006
ANXA6 (UniProt P08133) -0.017
ALAD (UniProt P13716) 0.004
AKT2 (UniProt P31751) 0.008
ANKS1A (UniProt Q92625) -0.006
ANO10 (UniProt Q9NW15) -0.019
ANKRD29 (UniProt Q8N6D5) 0.012
ALKBH8 isoform 4 (UniProt Q96BT7) -0.067
ALDH1A2 (UniProt O94788) -0.007
ANKHD1 isoform 6 (UniProt Q8IWZ3) -0.018
ALDOA (UniProt P04075) 0.013
AP2M1 (UniProt Q96CW1) 0.024

Looked up one by one from the list above, 2 records:
log2 fold change, inactive:
ANO10 (UniProt Q9NW15) -0.019
AKT2 (UniProt P31751) 0.008
